# From US20040220149A1, “Nerve cell survival promoters containing cyclic phosphatidic acid derivative” (priority 2001, published 2004)
# For at least one compound, name, drawing or mass did not settle the structure.
# Tested on: primary cultured nerve cells derived from a hippocampus of a rat fetal brain
# Assay: Influence of P13K inhibitors on the increase of nerve cell survival rate by cPA
# Type: cell-based
# Settings: inhibitor 30 nM added 2 hours prior to cPA (1 μM); 48 hours after cPA addition
structure (smiles),measurement,value
COC[C@H]1OC(=O)c2coc3c2[C@@]1(C)C1=C(C3=O)[C@@H]2CCC(=O)[C@@]2(C)C[C@H]1OC(C)=O [Wortmannin],survival rate of nerve cells treated with cPA after inhibitor pretreatment,lowered the survival rate nearly to the control level
